Source: article PMC3519869
These are yes or no findings as the source states them, for the method shown. For some of these results: In cells and extracts the contact can be indirect. Some binding calls cover weakened binding; strength is not graded here. Blank lines part the entries; values can stand above or below the molecule they belong to.

Amino acid sequences for entries named in this document (tags omitted). A change or cut given only in a name is not applied to a line headed by its entry. Residues count along the entry.
UniProt Q8N6T7: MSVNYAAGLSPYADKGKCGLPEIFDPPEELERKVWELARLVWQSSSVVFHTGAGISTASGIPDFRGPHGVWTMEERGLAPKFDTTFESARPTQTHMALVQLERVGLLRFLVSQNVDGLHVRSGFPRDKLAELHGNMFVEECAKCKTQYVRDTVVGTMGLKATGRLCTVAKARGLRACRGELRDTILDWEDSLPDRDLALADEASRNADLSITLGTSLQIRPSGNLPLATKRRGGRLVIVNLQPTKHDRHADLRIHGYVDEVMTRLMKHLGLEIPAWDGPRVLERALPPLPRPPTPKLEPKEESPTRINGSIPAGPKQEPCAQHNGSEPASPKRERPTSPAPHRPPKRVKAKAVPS
UniProt O60264: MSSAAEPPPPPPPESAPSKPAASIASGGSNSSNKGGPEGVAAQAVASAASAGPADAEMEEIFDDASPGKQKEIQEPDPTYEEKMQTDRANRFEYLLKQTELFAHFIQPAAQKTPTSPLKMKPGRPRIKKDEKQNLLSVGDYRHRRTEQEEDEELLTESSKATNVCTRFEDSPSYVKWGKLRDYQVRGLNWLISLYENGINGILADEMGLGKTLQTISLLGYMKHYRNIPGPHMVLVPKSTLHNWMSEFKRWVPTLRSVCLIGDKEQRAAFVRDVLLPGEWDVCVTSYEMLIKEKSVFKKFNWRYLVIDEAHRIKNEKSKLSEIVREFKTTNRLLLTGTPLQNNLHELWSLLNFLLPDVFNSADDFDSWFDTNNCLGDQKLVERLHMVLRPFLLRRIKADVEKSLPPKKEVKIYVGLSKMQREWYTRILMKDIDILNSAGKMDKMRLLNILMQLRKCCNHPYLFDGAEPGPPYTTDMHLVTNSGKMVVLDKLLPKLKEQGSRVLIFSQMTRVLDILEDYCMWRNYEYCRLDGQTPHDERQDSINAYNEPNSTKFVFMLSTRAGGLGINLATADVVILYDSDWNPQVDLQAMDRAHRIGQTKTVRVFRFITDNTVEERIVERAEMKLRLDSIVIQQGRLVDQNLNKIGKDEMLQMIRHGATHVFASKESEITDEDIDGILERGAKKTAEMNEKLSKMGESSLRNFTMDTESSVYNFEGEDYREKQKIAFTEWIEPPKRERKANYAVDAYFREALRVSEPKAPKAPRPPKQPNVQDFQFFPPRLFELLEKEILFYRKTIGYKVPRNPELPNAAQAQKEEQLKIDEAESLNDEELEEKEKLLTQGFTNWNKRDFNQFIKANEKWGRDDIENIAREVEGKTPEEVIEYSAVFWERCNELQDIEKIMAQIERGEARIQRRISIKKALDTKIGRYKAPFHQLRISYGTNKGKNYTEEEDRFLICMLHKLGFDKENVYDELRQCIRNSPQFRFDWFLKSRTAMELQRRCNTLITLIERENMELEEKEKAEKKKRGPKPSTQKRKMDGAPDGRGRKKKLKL
UniProt O75925: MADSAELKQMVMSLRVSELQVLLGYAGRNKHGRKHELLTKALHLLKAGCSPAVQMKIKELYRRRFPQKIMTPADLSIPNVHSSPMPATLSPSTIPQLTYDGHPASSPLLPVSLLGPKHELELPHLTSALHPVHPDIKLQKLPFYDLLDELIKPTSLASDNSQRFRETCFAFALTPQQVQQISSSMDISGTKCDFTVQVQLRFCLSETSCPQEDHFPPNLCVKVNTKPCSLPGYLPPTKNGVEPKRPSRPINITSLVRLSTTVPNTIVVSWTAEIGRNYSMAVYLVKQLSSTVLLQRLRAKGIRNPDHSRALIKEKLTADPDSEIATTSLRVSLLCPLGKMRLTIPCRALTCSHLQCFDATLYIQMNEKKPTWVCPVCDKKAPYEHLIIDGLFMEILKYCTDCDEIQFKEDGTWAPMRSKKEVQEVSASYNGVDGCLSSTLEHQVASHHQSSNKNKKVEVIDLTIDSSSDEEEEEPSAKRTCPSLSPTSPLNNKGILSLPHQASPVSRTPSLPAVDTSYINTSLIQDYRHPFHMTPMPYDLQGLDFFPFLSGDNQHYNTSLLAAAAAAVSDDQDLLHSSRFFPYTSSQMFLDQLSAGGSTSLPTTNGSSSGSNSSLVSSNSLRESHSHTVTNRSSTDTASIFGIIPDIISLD
UniProt Q04206: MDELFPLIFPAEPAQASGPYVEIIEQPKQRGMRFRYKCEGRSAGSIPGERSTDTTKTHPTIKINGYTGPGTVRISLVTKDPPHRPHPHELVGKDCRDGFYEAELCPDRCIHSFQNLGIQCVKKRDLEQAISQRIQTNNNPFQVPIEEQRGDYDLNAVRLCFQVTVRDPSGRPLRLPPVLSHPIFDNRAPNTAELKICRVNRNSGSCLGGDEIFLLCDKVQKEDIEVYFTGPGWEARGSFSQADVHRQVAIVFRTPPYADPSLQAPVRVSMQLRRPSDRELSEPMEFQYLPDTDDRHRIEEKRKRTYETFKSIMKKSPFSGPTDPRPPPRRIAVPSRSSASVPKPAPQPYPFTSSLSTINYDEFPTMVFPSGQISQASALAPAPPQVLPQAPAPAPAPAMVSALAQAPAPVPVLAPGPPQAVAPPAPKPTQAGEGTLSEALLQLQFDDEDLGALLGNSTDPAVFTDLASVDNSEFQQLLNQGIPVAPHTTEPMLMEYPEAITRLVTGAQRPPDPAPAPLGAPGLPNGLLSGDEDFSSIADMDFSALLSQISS
UniProt Q13569, residues 101-410: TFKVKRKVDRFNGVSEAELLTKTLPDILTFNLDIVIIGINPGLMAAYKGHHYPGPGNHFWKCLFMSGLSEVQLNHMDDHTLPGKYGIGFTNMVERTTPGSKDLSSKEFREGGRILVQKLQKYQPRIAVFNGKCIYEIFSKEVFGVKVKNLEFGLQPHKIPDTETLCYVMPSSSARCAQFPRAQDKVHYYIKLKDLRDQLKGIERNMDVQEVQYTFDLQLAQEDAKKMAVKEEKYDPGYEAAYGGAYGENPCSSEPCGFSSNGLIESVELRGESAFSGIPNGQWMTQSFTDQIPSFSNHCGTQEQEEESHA

Legend:
[1] = biological target: Gal4 DNA-binding domain-SIRT6 full length bait (N-Gal4-SIRT6-C, pB35) (human) (UniProt Q8N6T7); test: two-hybrid; library screen, Gal4 DNA-binding domain-SIRT6 bait (pB35) against the same library; mating of Y187 and CG1945; selection on medium lacking tryptophan, leucine, histidine and methionine
[2] = biological target: LexA-SIRT6 full length wild type bait (N-LexA-SIRT6-C, pB27) (human) (UniProt Q8N6T7); test: two-hybrid; library screen, LexA-SIRT6 bait (pB27) against a random-primed human leukocyte and activated mononuclear cell cDNA library in pP6; mating of Y187 and L40ΔGal4; selection on medium lacking tryptophan, leucine and histidine
[3] = biological target: LexA-SIRT6 H133W mutant bait (pB27) (human) (UniProt Q8N6T7); test: two-hybrid; one-by-one assays, re-cloned prey fragments against LexA-SIRT6 wild type or H133W (pB27); growth of diluted diploid yeast on medium lacking tryptophan, leucine and histidine; sensitivity to 3-Aminotriazole (data not shown)
[4] = biological target: LexA-SIRT6 full length wild type bait (N-LexA-SIRT6-C, pB27) (human) (UniProt Q8N6T7); test: as above
[5] = biological target: SMARCA5 (human (endogenous in HEK293)) (UniProt O60264); test: co-IP; extract of HEK293 cells transfected with Flag-SIRT6 immunoprecipitated with an antibody to the endogenous partner (anti-RelA/p65, anti-SMARCA5, anti-PIAS1, anti-MYBBP1A) on Protein G agarose; washes incl. 0.5 M NaCl; Western blot with anti-SIRT6 or anti-Flag
[6] = biological target: Flag-tagged H133W mutant of SIRT6 (human) (UniProt Q8N6T7); test: co-IP; extract of HEK293 cells transfected with Flag-SIRT6 (wild type or H133W) immunoprecipitated with anti-Flag agarose, 1 hour at room temperature; washes incl. 0.5 M NaCl; eluted with Flag peptide or SDS sample buffer; Western blot for the endogenous partner
[7] = biological target: Flag-tagged wild type SIRT6 (human) (UniProt Q8N6T7); test: as above
[8] = biological target: T1, MYB-binding protein 1A (MYBBP1A) (human (endogenous in HEK293)) (UniProt Q9BQG0); test: co-IP; extract of HEK293 cells transfected with Flag-SIRT6 immunoprecipitated with an antibody to the endogenous partner (anti-RelA/p65, anti-SMARCA5, anti-PIAS1, anti-MYBBP1A) on Protein G agarose; washes incl. 0.5 M NaCl; Western blot with anti-SIRT6 or anti-Flag
T1 sequence: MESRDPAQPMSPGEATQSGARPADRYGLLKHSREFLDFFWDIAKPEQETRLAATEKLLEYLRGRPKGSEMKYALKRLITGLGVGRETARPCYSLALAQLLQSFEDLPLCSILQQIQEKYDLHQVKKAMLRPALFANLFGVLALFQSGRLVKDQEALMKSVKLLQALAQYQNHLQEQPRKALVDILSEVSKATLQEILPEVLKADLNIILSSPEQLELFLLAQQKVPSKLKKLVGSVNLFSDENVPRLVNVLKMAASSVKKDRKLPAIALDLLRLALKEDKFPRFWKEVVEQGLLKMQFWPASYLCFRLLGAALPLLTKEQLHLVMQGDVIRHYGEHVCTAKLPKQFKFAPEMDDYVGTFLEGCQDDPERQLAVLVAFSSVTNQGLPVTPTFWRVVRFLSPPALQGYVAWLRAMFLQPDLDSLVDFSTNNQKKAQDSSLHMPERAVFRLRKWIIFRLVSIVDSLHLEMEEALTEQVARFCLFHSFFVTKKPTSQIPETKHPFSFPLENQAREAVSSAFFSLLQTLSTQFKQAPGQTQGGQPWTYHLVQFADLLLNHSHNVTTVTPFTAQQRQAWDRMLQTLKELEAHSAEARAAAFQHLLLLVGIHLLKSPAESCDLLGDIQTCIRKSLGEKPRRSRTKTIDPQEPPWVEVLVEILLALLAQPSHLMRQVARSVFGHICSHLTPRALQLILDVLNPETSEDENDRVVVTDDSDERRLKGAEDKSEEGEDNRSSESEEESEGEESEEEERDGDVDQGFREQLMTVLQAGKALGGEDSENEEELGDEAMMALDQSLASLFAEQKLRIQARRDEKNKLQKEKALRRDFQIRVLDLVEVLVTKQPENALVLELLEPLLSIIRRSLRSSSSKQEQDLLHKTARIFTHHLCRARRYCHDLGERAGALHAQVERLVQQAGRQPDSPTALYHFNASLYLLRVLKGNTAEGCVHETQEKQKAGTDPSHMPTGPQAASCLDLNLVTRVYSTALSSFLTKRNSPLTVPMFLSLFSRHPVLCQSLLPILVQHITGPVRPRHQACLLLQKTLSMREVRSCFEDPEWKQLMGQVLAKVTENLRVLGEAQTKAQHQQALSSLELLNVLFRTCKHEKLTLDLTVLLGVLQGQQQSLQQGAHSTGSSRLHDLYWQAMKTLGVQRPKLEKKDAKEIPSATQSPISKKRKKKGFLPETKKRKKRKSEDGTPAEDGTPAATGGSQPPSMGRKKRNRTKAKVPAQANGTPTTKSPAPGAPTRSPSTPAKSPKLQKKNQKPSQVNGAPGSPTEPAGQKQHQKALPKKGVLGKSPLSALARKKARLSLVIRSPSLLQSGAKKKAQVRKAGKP

[9] = biological target: PIAS1 (human (endogenous in HEK293)) (UniProt O75925); test: as above
[10] = biological target: RelA/p65 (human (endogenous in HEK293)) (UniProt Q04206); test: as above

Molecule: protein inhibitor of activated STAT1 (PIAS1) residues 303-507, two-hybrid prey (from UniProt O75925 303-507) (domain or fragment)
binding [1]: binds | binding [2]: binds | binding [3]: binds | binding [4]: binds

Molecule: Flag-tagged H133W mutant of SIRT6 (from UniProt Q8N6T7 1-355) (enzyme)
binding [5]: binds

Molecule: PIAS1 (from UniProt O75925 1-651)
binding [6]: binds | binding [7]: binds

Molecule: thymine DNA glycosylase (TDG) residues 101-410, two-hybrid prey (from UniProt Q13569 101-410) (domain or fragment)
binding [1]: binds | binding [2]: binds | binding [3]: binds | binding [4]: binds

Second part, the molecule after the results:

binding [6]: binds | binding [7]: binds
Molecule: RelA/p65 (from UniProt Q04206 1-551)

binding [8]: binds | binding [9]: binds | binding [10]: binds | binding [5]: binds
Molecule: Flag-tagged wild type SIRT6 (from UniProt Q8N6T7 1-355) (enzyme)

binding [7]: binds
Molecule: SMARCA5 (from UniProt O60264 1-1052)

binding [7]: binds
B1: MYB-binding protein 1A (MYBBP1A) (protein, UniProt Q9BQG0 1-1328)
chain: MESRDPAQPMSPGEATQSGARPADRYGLLKHSREFLDFFWDIAKPEQETRLAATEKLLEYLRGRPKGSEMKYALKRLITGLGVGRETARPCYSLALAQLLQSFEDLPLCSILQQIQEKYDLHQVKKAMLRPALFANLFGVLALFQSGRLVKDQEALMKSVKLLQALAQYQNHLQEQPRKALVDILSEVSKATLQEILPEVLKADLNIILSSPEQLELFLLAQQKVPSKLKKLVGSVNLFSDENVPRLVNVLKMAASSVKKDRKLPAIALDLLRLALKEDKFPRFWKEVVEQGLLKMQFWPASYLCFRLLGAALPLLTKEQLHLVMQGDVIRHYGEHVCTAKLPKQFKFAPEMDDYVGTFLEGCQDDPERQLAVLVAFSSVTNQGLPVTPTFWRVVRFLSPPALQGYVAWLRAMFLQPDLDSLVDFSTNNQKKAQDSSLHMPERAVFRLRKWIIFRLVSIVDSLHLEMEEALTEQVARFCLFHSFFVTKKPTSQIPETKHPFSFPLENQAREAVSSAFFSLLQTLSTQFKQAPGQTQGGQPWTYHLVQFADLLLNHSHNVTTVTPFTAQQRQAWDRMLQTLKELEAHSAEARAAAFQHLLLLVGIHLLKSPAESCDLLGDIQTCIRKSLGEKPRRSRTKTIDPQEPPWVEVLVEILLALLAQPSHLMRQVARSVFGHICSHLTPRALQLILDVLNPETSEDENDRVVVTDDSDERRLKGAEDKSEEGEDNRSSESEEESEGEESEEEERDGDVDQGFREQLMTVLQAGKALGGEDSENEEELGDEAMMALDQSLASLFAEQKLRIQARRDEKNKLQKEKALRRDFQIRVLDLVEVLVTKQPENALVLELLEPLLSIIRRSLRSSSSKQEQDLLHKTARIFTHHLCRARRYCHDLGERAGALHAQVERLVQQAGRQPDSPTALYHFNASLYLLRVLKGNTAEGCVHETQEKQKAGTDPSHMPTGPQAASCLDLNLVTRVYSTALSSFLTKRNSPLTVPMFLSLFSRHPVLCQSLLPILVQHITGPVRPRHQACLLLQKTLSMREVRSCFEDPEWKQLMGQVLAKVTENLRVLGEAQTKAQHQQALSSLELLNVLFRTCKHEKLTLDLTVLLGVLQGQQQSLQQGAHSTGSSRLHDLYWQAMKTLGVQRPKLEKKDAKEIPSATQSPISKKRKKKGFLPETKKRKKRKSEDGTPAEDGTPAATGGSQPPSMGRKKRNRTKAKVPAQANGTPTTKSPAPGAPTRSPSTPAKSPKLQKKNQKPSQVNGAPGSPTEPAGQKQHQKALPKKGVLGKSPLSALARKKARLSLVIRSPSLLQSGAKKKAQVRKAGKP
